Record: PubChem BioAssay AID1259254 (NCATS, 2017)
Aim: 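Gene knock-downs that lead to re-replication, shown by excess G2 DNA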 (primary screen). Cells: human HCT116 colorectal cancer cells. Knock-down reagent: single siRNA against human genes. Duration: 3 days. Read-out: 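Imaged Hoechst DNA stain sorts each cell into a cycle phase by DNA amount; per plate, G2 fraction set to 0% for non-targeting and 100% for GMNN siRNA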. Scale: G2 robust z-score and G2 cells, % of GMNN control: higher = more G2 cells, more excess DNA replication. Call rule: 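An siRNA counts as active if its G2 robust z-score lies at least 5 MADs above the screen median; here such calls match roughly 38% of GMNN control or more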.
This is one part, drawn at random, of about 59,000 reagents tested. About 1,550 of all reagents (2.6%) were called active. 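G2 share is only a proxy for re-replication; each gene was hit by three separate siRNAs, and active genes were retested.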 The numbers tell different reagents against one gene apart. Not all columns of the deposit are shown. Reagent sequences are not shown. Not given: the amount of reagent.

The first 3 records as a preview:
gene	reagent	G2 robust z-score	G2 cells, % of GMNN control	call
CXCL9	1	0.844	8.91	inactive
CXCL9	2	-0.558	-0.96	inactive
CXCL9	3	2.28	19	inactive

Results, from the first entry:
gene	reagent	G2 robust z-score	G2 cells, % of GMNN control	call
CXCL9	1	0.844	8.91	inactive
CXCL9	2	-0.558	-0.96	inactive
CXCL9	3	2.28	19	inactive
CDK6	1	-1.5	-7.57	inactive
CDK6	2	-0.836	-2.91	inactive
CDK6	3	-1.15	-5.14	inactive
WSB2	1	0.317	5.2	inactive
WSB2	2	0.511	6.57	inactive
WSB2	3	-0.895	-3.33	inactive
LOXHD1	1	-0.405	0.117	inactive
LOXHD1	2	-0.431	-0.0617	inactive
LOXHD1	3	0.822	8.75	inactive
IL9	1	0.469	6.27	inactive
IL9	2	-0.444	-0.155	inactive
IL9	3	0.199	4.37	inactive
TMA16	1	3.57	28.1	inactive
TMA16	2	5.75	43.4	active
TMA16	3	-0.615	-1.36	inactive
CEP85L	1	0.0102	3.04	inactive
CEP85L	2	-0.968	-3.84	inactive
CEP85L	3	0.475	6.31	inactive
B3GALT4	1	0.276	4.91	inactive
B3GALT4	2	-0.664	-1.71	inactive
B3GALT4	3	-0.548	-0.886	inactive
SPAG4	1	0.905	9.34	inactive
SPAG4	2	0.838	8.86	inactive
SPAG4	3	-1.29	-6.12	inactive
SPOPL	1	1.33	12.3	inactive
SPOPL	2	-0.208	1.5	inactive
SPOPL	3	1.49	13.4	inactive
NPTXR	1	0.334	5.32	inactive
NPTXR	2	-1.18	-5.31	inactive
NPTXR	3	3.72	29.2	inactive
DLGAP5	1	-0.488	-0.466	inactive
DLGAP5	2	-0.122	2.11	inactive
DLGAP5	3	2.03	17.3	inactive
CTTNBP2NL	1	0.809	8.66	inactive
CTTNBP2NL	2	-0.542	-0.846	inactive
CTTNBP2NL	3	0.0726	3.48	inactive
TNFRSF21	1	-0.247	1.23	inactive
TNFRSF21	2	-0.439	-0.125	inactive
TNFRSF21	3	0.122	3.83	inactive
MROH2B	1	-0.193	1.61	inactive
MROH2B	2	0.0504	3.32	inactive
MROH2B	3	0.596	7.16	inactive
CIST1	1	0.556	6.88	inactive
CIST1	2	0.0567	3.37	inactive
CIST1	3	2.04	17.3	inactive
C1orf216	1	-0.33	0.648	inactive
C1orf216	2	2.62	21.4	inactive
C1orf216	3	0.143	3.97	inactive
ANKRD39	1	-0.381	0.286	inactive
ANKRD39	2	-0.99	-4	inactive
ANKRD39	3	2.13	18	inactive
DEPDC7	1	0.893	9.25	inactive
DEPDC7	2	-0.307	0.808	inactive
DEPDC7	3	-0.679	-1.81	inactive
ARPP19P2	1	2.46	20.3	inactive
ARPP19P2	2	0.828	8.79	inactive
ARPP19P2	3	0.137	3.93	inactive
RBM19	1	3.73	29.2	inactive
RBM19	2	1.85	16	inactive
RBM19	3	0.349	5.42	inactive
SPEM1	1	-1.06	-4.46	inactive
SPEM1	2	-0.499	-0.541	inactive
SPEM1	3	-0.0188	2.84	inactive
TMEM72	1	-0.421	0.00628	inactive
TMEM72	2	0.277	4.92	inactive
TMEM72	3	0.563	6.93	inactive
